Source: PMC12588913
Results are given in words; binding and its absence hold for the method and conditions named. Binding seen in cells or lysates may run through a third protein. A yes stands for co-enrichment or nearness to the bait. Other partners may have been found.

Protein sequences, listed by entry. Tags and fused reporters are not part of them. Residues count along the entry.
UniProt P06733: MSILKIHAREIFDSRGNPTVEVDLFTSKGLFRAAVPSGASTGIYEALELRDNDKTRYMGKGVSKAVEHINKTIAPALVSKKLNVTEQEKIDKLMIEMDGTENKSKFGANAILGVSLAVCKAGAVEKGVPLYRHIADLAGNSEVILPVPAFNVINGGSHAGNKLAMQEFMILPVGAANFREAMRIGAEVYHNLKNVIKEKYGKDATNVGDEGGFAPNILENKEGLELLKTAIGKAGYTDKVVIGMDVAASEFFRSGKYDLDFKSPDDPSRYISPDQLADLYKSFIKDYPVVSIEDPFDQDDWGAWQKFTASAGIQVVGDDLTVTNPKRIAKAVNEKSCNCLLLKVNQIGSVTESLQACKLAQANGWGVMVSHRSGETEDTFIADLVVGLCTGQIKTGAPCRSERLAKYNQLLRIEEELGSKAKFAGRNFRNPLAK
UniProt O75197, residues 32-1615: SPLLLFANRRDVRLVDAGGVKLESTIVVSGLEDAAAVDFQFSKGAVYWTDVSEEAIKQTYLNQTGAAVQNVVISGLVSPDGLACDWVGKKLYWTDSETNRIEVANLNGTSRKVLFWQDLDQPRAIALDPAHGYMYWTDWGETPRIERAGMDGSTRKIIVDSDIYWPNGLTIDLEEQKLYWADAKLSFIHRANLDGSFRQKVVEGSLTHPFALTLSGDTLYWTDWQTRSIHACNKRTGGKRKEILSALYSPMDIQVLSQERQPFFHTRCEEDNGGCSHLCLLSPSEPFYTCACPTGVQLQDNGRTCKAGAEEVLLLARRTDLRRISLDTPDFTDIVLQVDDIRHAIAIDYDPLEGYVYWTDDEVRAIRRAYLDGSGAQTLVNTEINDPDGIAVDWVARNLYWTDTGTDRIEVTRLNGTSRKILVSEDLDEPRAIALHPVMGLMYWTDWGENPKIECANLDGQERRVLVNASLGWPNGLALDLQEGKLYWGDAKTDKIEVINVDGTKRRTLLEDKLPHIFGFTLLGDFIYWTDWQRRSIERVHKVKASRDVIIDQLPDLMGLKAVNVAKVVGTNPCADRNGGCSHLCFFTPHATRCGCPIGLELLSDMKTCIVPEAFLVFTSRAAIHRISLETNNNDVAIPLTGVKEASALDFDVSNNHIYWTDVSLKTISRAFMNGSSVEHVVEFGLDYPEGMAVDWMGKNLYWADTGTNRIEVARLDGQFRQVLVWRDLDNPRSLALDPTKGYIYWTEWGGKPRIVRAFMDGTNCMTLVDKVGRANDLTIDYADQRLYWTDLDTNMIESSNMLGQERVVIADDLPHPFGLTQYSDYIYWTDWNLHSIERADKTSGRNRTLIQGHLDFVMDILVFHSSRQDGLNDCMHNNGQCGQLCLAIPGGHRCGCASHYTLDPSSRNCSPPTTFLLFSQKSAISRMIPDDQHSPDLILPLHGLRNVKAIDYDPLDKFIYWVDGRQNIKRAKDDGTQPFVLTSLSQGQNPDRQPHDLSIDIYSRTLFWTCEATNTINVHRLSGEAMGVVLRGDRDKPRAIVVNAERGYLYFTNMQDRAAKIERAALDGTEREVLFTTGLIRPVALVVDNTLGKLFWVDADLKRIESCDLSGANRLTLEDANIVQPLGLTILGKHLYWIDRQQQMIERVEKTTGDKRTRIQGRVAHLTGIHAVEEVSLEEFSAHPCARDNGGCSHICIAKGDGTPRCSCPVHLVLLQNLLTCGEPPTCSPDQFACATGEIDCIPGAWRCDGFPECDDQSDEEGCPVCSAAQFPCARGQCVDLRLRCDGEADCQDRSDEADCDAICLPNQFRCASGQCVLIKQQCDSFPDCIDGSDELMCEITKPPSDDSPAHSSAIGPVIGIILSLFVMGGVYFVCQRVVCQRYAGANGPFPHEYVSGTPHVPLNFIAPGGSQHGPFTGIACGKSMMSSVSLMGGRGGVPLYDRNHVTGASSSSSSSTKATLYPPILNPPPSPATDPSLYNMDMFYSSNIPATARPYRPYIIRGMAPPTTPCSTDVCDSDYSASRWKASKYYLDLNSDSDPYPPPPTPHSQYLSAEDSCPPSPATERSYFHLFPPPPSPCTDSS
UniProt O14744: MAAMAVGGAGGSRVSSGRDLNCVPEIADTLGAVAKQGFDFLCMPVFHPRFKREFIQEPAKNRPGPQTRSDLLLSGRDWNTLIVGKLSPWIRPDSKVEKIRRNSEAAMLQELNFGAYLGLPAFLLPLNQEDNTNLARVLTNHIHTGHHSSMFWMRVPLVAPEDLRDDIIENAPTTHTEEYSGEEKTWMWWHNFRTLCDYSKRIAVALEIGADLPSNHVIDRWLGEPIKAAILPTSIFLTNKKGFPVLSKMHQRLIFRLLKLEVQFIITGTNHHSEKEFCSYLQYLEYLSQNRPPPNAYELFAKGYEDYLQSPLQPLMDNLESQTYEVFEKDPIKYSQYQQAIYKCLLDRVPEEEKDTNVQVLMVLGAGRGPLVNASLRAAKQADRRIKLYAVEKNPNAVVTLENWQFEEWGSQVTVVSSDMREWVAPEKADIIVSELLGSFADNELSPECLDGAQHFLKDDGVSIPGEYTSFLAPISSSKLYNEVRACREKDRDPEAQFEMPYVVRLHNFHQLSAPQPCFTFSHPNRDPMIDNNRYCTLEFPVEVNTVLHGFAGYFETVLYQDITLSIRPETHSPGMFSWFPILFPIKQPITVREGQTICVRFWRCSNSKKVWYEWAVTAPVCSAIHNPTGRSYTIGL

B1: CHERP (protein, UniProt Q8IWX8 1-916)
chain: MEMPLPPDDQELRNVIDKLAQFVARNGPEFEKMTMEKQKDNPKFSFLFGGEFYSYYKCKLALEQQQLICKQQTPELEPAATMPPLPQPPLAPAAPIPPAQGAPSMDELIQQSQWNLQQQEQHLLALRQEQVTAAVAHAVEQQMQKLLEETQLDMNEFDNLLQPIIDTCTKDAISAGKNWMFSNAKSPPHCELMAGHLRNRITADGAHFELRLHLIYLINDVLHHCQRKQARELLAALQKVVVPIYCTSFLAVEEDKQQKIARLLQLWEKNGYFDDSIIQQLQSPALGLGQYQATLINEYSSVVQPVQLAFQQQIQTLKTQHEEFVTSLAQQQQQQQQQQQQLQMPQMEAEVKATPPPPAPPPAPAPAPAIPPTTQPDDSKPPIQMPGSSEYEAPGGVQDPAAAGPRGPGPHDQIPPNKPPWFDQPHPVAPWGQQQPPEQPPYPHHQGGPPHCPPWNNSHEGMWGEQRGDPGWNGQRDAPWNNQPDAAWNSQFEGPWNSQHEQPPWGGGQREPPFRMQRPPHFRGPFPPHQQHPQFNQPPHPHNFNRFPPRFMQDDFPPRHPFERPPYPHRFDYPQGDFPAEMGPPHHHPGHRMPHPGINEHPPWAGPQHPDFGPPPHGFNGQPPHMRRQGPPHINHDDPSLVPNVPYFDLPAGLMAPLVKLEDHEYKPLDPKDIRLPPPMPPSERLLAAVEAFYSPPSHDRPRNSEGWEQNGLYEFFRAKMRARRRKGQEKRNSGPSRSRSRSKSRGRSSSRSNSRSSKSSGSYSRSRSRSCSRSYSRSRSRSRSRSRSSRSRSRSQSRSRSKSYSPGRRRRSRSRSPTPPSSAGLGSNSAPPIPDSRLGEENKGHQMLVKMGWSGSGGLGAKEQGIQDPIKGGDVRDKWDQYKGVGVALDDPYENYRRNKSYSFIARMKARDECK
B2: SLC25A6 (protein, UniProt P12236 1-298)
chain: MTEQAISFAKDFLAGGIAAAISKTAVAPIERVKLLLQVQHASKQIAADKQYKGIVDCIVRIPKEQGVLSFWRGNLANVIRYFPTQALNFAFKDKYKQIFLGGVDKHTQFWRYFAGNLASGGAAGATSLCFVYPLDFARTRLAADVGKSGTEREFRGLGDCLVKITKSDGIRGLYQGFSVSVQGIIIYRAAYFGVYDTAKGMLPDPKNTHIVVSWMIAQTVTAVAGVVSYPFDTVRRRMMMQSGRKGADIMYTGTVDCWRKIFRDEGGKAFFKGAWSNVLRGMGGAFVLVLYDELKKVI

Target: Alpha-enolase (ENO1) (human (endogenous in Raji)) (UniProt P06733)
Experiment: affinity purification with mass spectrometry; Raji cell lysates pre-cleared with Protein A/G beads, immunoprecipitated overnight at 4°C with anti-ENO1 antibody (anti-IgG as negative control); washes with low-salt (150 mM NaCl) and high-salt (500 mM NaCl) buffer, 50 mM Tris-HCl pH 7.4, 0.1% NP-40; trypsin digest, LC-MS/MS

binding, binds:
LRP5 (from UniProt O75197 32-1615)
SYNE2 (from UniProt Q8WXH0 1-6885)
PRMT5 (from UniProt O14744 1-637)
B1
B2
